From patent publication US11284615B2, “Cryopreservation using sucralose” (East Carolina University, priority 2015, dated 2022)

Experiment: Merocyanine 540 fluorescent probe in model membranes
Format: physicochemical
Conditions: increasing amounts of sucralose

In the case of OC[C@H]1O[C@H](O[C@]2(CCl)O[C@H](CCl)[C@@H](O)[C@@H]2O)[C@H](O)[C@@H](O)[C@H]1Cl [sucralose, 1,6-Dichloro-1,6-dideoxy-β-D-fructofuranosyl-4-chloro-4-deoxy-α-D-galactopyranoside], the “fluidity of model membranes” value is reported as “increase in fluidity” and the “polarity of model membranes” value is reported as “decrease in polarity”.
